Binding signal data for 42 sequences are collected here from article PMC7819943, “Rice protein-binding microarrays: a tool to detect cis-acting elements near promoter regions in rice”.

Some of the results follow.

This assay addresses T1, OsSMF1 (Oryza sativa, UniProt Q6ZLB0 1-436).
T1 sequence: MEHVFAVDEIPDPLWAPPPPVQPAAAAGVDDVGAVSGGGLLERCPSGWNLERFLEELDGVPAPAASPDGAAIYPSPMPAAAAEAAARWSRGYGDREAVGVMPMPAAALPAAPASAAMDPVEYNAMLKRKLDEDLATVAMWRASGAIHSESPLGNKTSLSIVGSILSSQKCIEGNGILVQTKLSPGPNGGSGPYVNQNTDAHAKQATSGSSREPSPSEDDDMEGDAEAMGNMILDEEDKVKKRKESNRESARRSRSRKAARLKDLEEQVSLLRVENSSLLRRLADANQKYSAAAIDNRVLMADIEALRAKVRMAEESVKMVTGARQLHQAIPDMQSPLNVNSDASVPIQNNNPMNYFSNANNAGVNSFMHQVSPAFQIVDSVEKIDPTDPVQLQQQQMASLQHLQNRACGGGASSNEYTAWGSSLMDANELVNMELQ
Put plainly: protein-binding microarray (RPBM); PBS, 2% BSA, 51.3 ng/ul salmon testes DNA, 50 uM zinc acetate, 200 nM TF, 25 C, 1 h; high values mean tight binding. To be noted: protein: recombinant; tags: N-terminal polyhistidine and DsRed monomer fusion (pET32a); chain copies: 2; label: CyDye5-dUTP incorporated in the synthesized complementary strand; 3' TTTTT single-stranded linker to array surface; dsDNA, one strand shown. The essentials: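 The binding signal is fluorescence intensity per array feature (arbitrary units). Readings came from an Axon 4000B scanner after a washed, 2% BSA-blocked, double-stranded custom Agilent array had been incubated for 1 h at 25 °C with 200 nM protein and 50 µM zinc acetate. The protein was a Ni–NTA-purified transcription factor fused N-terminally to polyhistidine and DsRed, expressed in E. coli BL21-CodonPlus.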
On to “CGAATCTTTTGAGCCTAATTAATCTATCATTAGCACATGTCGGAGTCACCTAGTGCAG”, for which the binding signal is 3170 fluorescence intensity (a.u.).
As for “GCCGCGACGGCGCCGGCCTCCGCCGCGCCGCATTCTTCCTCGGAGTCACCTAGTGCAG”, the figure is 3720 fluorescence intensity (a.u.); as for “ATTGGATGAGGTGACATATACAGCACTCATATCAGGGCTGCGGAGTCACCTAGTGCAG”, 3150 fluorescence intensity (a.u.); as for “CTCCCCGCCGGCGTGGCGGGGCGCCGCCTTCCATCGGTGTCGGAGTCACCTAGTGCAG”, 38600 fluorescence intensity (a.u.).
Turning to “AACATAATGTTTTAACTTAAACCTTAATAATGAAATTTCTCGGAGTCACCTAGTGCAG”, the binding signal was 3670 fluorescence intensity (a.u.).
As to “TACTTAGTAGCTAGGAGCTATATTGGTTGGAAAGGAGCGCCGGAGTCACCTAGTGCAG”, the binding signal was 51200 fluorescence intensity (a.u.).
In the case of “ATCAGCTAAAACCAGGGACAATACTGTCAATGGACCTTATCGGAGTCACCTAGTGCAG”, the binding signal was 3330 fluorescence intensity (a.u.).
For the sequence “TGTCAATCGAGTAAACAACCGGTCTCAACAATCCACGTAACGGAGTCACCTAGTGCAG”, the binding signal is 23600 fluorescence intensity (a.u.).
For “TTATTAGTGGAGTTATAGTCCAACACTCAAACGATCACCACGGAGTCACCTAGTGCAG”, the binding signal is 3140 fluorescence intensity (a.u.).
Regarding “CTACGATCAGAAACAGCGGGGCGGGTTGGGAGGGAGTCCACGGAGTCACCTAGTGCAG”, the binding signal is 3620 fluorescence intensity (a.u.).
Regarding “AAAACACCAGTGTGTGTCAATGACATGCCATACCCGACATCGGAGTCACCTAGTGCAG”, the binding signal is 4460 fluorescence intensity (a.u.).
“AGTTTATTAATCATGTGCTAATGACTCACCTTGTTTTGCACGGAGTCACCTAGTGCAG”: the binding signal is 12300 fluorescence intensity (a.u.).
Take “ACGAAGCATCGTTTCCTGTGGCACACGCCTCACGGCGTATCGGAGTCACCTAGTGCAG”: the binding signal was 3830 fluorescence intensity (a.u.).
For the sequence “ACGATTCGGTCACTTCCTCTGACTCAACCGCTCATGTTGACGGAGTCACCTAGTGCAG”, the binding signal is 4320 fluorescence intensity (a.u.).
In the case of “TGGCTCGCTGCCGTGGCGCGGGCGGAGCCTTAGGTTGTGCCGGAGTCACCTAGTGCAG”, the binding signal was 5400 fluorescence intensity (a.u.).
As for “GCAAATGCAACGTAGCAGCTAGCTGTAAGCACGCACTTGGCGGAGTCACCTAGTGCAG”, the figure is 3180 fluorescence intensity (a.u.); as for “ATAAATCCGCCCAGCCCCGCCGCGCCATGCCCGCGAGACCCGGAGTCACCTAGTGCAG”, 14600 fluorescence intensity (a.u.).
As for “GGCTGGTGCTGACCTGCTGATGCAATCGCCGGCCCTGCCACGGAGTCACCTAGTGCAG”, the figure is 7410 fluorescence intensity (a.u.); as for “ACTTATGCTCCAATTCTTATGAGATGCTTGTGCATGGGAACGGAGTCACCTAGTGCAG”, 27000 fluorescence intensity (a.u.).
“AGTGTGTAGGGATGTTGAGATTTCTTTTGATGTTGTTTTACGGAGTCACCTAGTGCAG”: the binding signal was 3350 fluorescence intensity (a.u.).
As to “ACCAAGCCGATGTAAATGACCTGTTTGAGTGAACTTAAGACGGAGTCACCTAGTGCAG”, the binding signal was 3780 fluorescence intensity (a.u.).
On to “GAACGGAGGAGGGAGGGAGCGGCGCGCGGCCGTGGCGGTGCGGAGTCACCTAGTGCAG”, for which the binding signal was 12100 fluorescence intensity (a.u.).
For “CAAGATCTTGTAATGTGTGTGGTCATAATTTAGCTCAATCCGGAGTCACCTAGTGCAG”, the binding signal was 8930 fluorescence intensity (a.u.).
Turning to “ACACATCGGAAATTATCTGTAGAAGCTCTAAGCATATATACGGAGTCACCTAGTGCAG”, the binding signal is 3660 fluorescence intensity (a.u.).
As for “GTCCTCAGATATTTTGTTCGGTGTTTGAGGAACATGATCTCGGAGTCACCTAGTGCAG”, the figure is 23600 fluorescence intensity (a.u.); as for “TATTTTAAGTCAAACATGCTTATCTGTAACTATTAATTTTCGGAGTCACCTAGTGCAG”, 3300 fluorescence intensity (a.u.).
As for “TTTGTATACCATGAATCCGATCAACCCAAATATATTTTGTCGGAGTCACCTAGTGCAG”, the binding signal is 3670 fluorescence intensity (a.u.).
As to “GCCTTGAGCATCACCGTCCTCAGCATCCTCGCGCTGTCAACGGAGTCACCTAGTGCAG”, the binding signal was 3420 fluorescence intensity (a.u.).
For the sequence “TCCTATTTTCCGCATTCTCTGCCCTACTTCAAAATCTGGGCGGAGTCACCTAGTGCAG”, the binding signal is 3240 fluorescence intensity (a.u.).
Regarding “AATTGGAAGTCTTAGTCAAATACTGCTCCCTCCATTTCAACGGAGTCACCTAGTGCAG”, the binding signal is 3280 fluorescence intensity (a.u.).
For “TTCAAAATTTCCAACGTTTATGTTGAAAGTGCACGTTCGTCGGAGTCACCTAGTGCAG”, the binding signal was 3280 fluorescence intensity (a.u.).
With “CAGGGGCAACGGCGGCGGTCGCTGACGCCGTCGCGGTCTTCGGAGTCACCTAGTGCAG”, the binding signal is 3950 fluorescence intensity (a.u.).
Take “GACATGACCCCTCGATCGTCCGCCACGTGTCGCGCGCCATCGGAGTCACCTAGTGCAG”: the binding signal is 31100 fluorescence intensity (a.u.).
Turning to “ACTATAGATAATAATTTCTAGTGGGTGATGACGTGGCACACGGAGTCACCTAGTGCAG”, the binding signal was 31900 fluorescence intensity (a.u.).
As for “TGGTTGACTGGCCCACGTGTCGGTGACGGGGAGTTGCCTGCGGAGTCACCTAGTGCAG”, the figure is 16200 fluorescence intensity (a.u.); as for “AATTCGAATTTTCGGATAACAGATCCTTCTAATCCAGTCTCGGAGTCACCTAGTGCAG”, 3240 fluorescence intensity (a.u.).
“GGATGCCAGCTGCAGATGCGACGCCCACGTACTACGTCTGCGGAGTCACCTAGTGCAG”: the binding signal is 5600 fluorescence intensity (a.u.).
Regarding “ACGGTCGCCCGGTCAGCGCGCACACACACGTCTTACGTCTCGGAGTCACCTAGTGCAG”, the binding signal was 3590 fluorescence intensity (a.u.).
On to “CTAGCTACTTCTATCCTCCACCTCCTAAATGATCGATTTGCGGAGTCACCTAGTGCAG”, for which the binding signal was 3740 fluorescence intensity (a.u.).
On to “CTTTTGTTGATTCTTGTCCATGATCCCAAGTCATCACTTTCGGAGTCACCTAGTGCAG”, for which the binding signal is 4160 fluorescence intensity (a.u.).
In the case of “AGCCGGGACCTCGCCGCCGTCACCTTCTCCCCGCACACTCCGGAGTCACCTAGTGCAG”, the binding signal is 4920 fluorescence intensity (a.u.).
Consider “CGGTCGATGCGGGCCGAAGCGGCGTCCACGCGAGCACAACCGGAGTCACCTAGTGCAG”, for which the binding signal is 3170 fluorescence intensity (a.u.).
